Here are results for 68 sequences from PubChem BioAssay AID1508600 (Functional Genomics Laboratory (NCATS/FGL), 2020).

The whole screen tested about 53,000 sequences, of which about 3,700 (7%) were called active.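 Rule for the calls: active = gene knockdowns whose robust z-score for IL-1 alpha signal is at least 2 or at most -2, so actives lie on both sides; inactive = the rest.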 The list shows a part of the results.

This assay in a line: Components of the Cytosolic LPS Sensing Pathway: Gene Identification via Genome-wide siRNA Screen. Particulars: RAW264.7 macrophages, IL-1a HTRF, actives lie on both sides, screened at 100 nM (by protocol), cells primed 5 h with Pam3CSK4 first. An excerpt:
Non-canonical inflammasome activation by cytosolic LPS is a critical component of the host response to Gram-negative bacterial infection, however we lack a comprehensive understanding of the cellular processes that control this pathway. Here we describe a genome-wide siRNA screen to identify genes regulating the mouse macrophage IL-1 alpha response to cytosolic LPS.
RAW264.7 cells were maintained in complete DMEM media, comprising DMEM with 4.5 g/L glucose, 10% FBS (Gemini Bio-Products, West Sacramento, CA), 2 mM Glutamine (Lonza) and 20 mM HEPES (Lonza), hereafter complete DMEM.
The RNAi screen was conducted in 384-well format using the Ambion Silencer Mouse Genome siRNA Library (#4391425), which consists of three unique, nonoverlapping, nonpooled siRNAs for each of 17,000 gene targets. siRNA reagents ([…]) were stamped into 384-well white flat-bottom microplates (Corning, 3570) using a Velocity11 VPrep liquid handling system (Agilent) integrated into a BioCel robotic platform (Agilent) in columns 1-22, leaving columns 23-24 empty for negative (Ambion, Negative control #1) and positive (mouse Casp4) controls, respectively. The median value of each plate's negative control column was used to normalize sample wells, and the positive control was used to assess transfection efficiency and assay performance.
Lipofectamine RNAiMAX Transfection Reagent ([…]; Invitrogen) was added in […] serum-free, antibiotic-free media to plate wells using a Thermo Scientific Matrix WellMate and Microplate Stacker. Plates were incubated for 45 min at room temperature to allow for the sufficient formation of siRNA-lipid complexes. Cells were seeded at a density of 1x10^4 cells per well in 20 microL media containing 20% (vol/vol) FBS without antibiotics. The final concentration of siRNA in each well was 100 nM. Cells were cultured for 48h at 37 degrees C in 5% CO2 before addition of […] of TLR ligand Pam3CSK4 for 5 hours. The medium was then removed, replaced with […] growth media and cell were transfected with […] of LipidA and TransIT-TKO (Mirus) for 24 hour. At the end of the LipidA treatment, […] of supernatant was transferred to a 384 Greiner Bio-one non-binding low volume plate and […] of IL-1a HTRF reagent (Cisbio, 62MIL1APEH) was added and incubated at room temperature overnight. The plates were read on an EnVision plate reader (PerkinElmer). Cell viability was measured by adding 20ul Cell Titer Glo to the original plate and running a luminescence read on the EnVision. The quantified IL-1a signal for each siRNA gene-targeted well was divided by the median of the negative control wells and multiplied by 100 to achieve a negative control normalized value for each well/siRNA. This normalized value was then used to generate a robust z-score by first taking the log of each value and then by subtracting the median and dividing by the […].
(In general: In TR-FRET formats the signal depends on donor and acceptor labels being close together.)
For the sequence GGGACCGUGAAGAAAAUUUTT against Tmed11, the z-score was inactive: -0.926.
As for CCAAUCUGAAGUGCUACUATT against Trim42, the figure is inactive: 0.368; as for GGUGUCAUCUUCCUGCUUGTT against Olfr93, inactive: 0.476; as for GGUUAUUUCUAAAGUUCCUTT against Sphk1, inactive: -0.0567.
With GGAAGUGAGGGAAGAAAUUTT against Zcchc9, the z-score was inactive: 0.0628.
Then GGAUCUGGUACCCACCCAATT against Jak2, with inactive: -1.63.
As for GGGUCAUGAAAAAACAUUATT against Cyb5b, the figure is inactive: 0.915.
As to GGUGGUCUGAGAAAUACUCTT against Czib, the z-score was active: 2.06.
For GGGAGUAAAGAAAAUGUUATT against Atxn2, the z-score was inactive: -0.112.
Then GGUGUGAAAAGAGGAGGAGTT against Zfp65, with inactive: -0.477; and CGAACAAGCCAUGUUUACATT against Gvin1, with inactive: 0.811; and GGCAACACAAGUGAGAAUGTT against Zfp768, with inactive: -1.23.
Then GCCCUUAACAAGAAUGAGUTT against Six6, with inactive: -0.73; and CCAAAGUCAUCGAUGCAAATT against Cst6, with inactive: 0.493; and GCAUUUUGAAUCACUUGAATT against Brca2, with inactive: 0.314.
As for GGGAAAAGAAAAGAGGACATT against Serf1, the z-score was inactive: -1.28.
As for CCUUCCAAGAUCAAUAAGATT against Epb42, the figure is inactive: 1.2; as for GGUUAUCCAACCUAGAAUATT against Tmlhe, inactive: 0.74; as for CGAGAGUGAUGCGCAUUUCTT against Sf3b5, active: -3.04.
As for CCCGGAGUACAGUGACUUUTT against Htra1, the figure is inactive: 0.545.
As for GGUGAGAUCUCAAUGGAAATT against Mfap1a, the figure is inactive: -0.471; as for GCCACUGGGACCUAUUGAUTT against Glyctk, inactive: -0.141; as for GCUGGAUACUAAUUGCUUATT against Parva, inactive: 1.27.
In the case of CCAUUCUCUACAUUCACUCTT against Olfr944, the z-score is inactive: -1.24.
Regarding GGGUUACGUACAACACAUUTT against Mtf1, the z-score was inactive: 1.66.
For CGCCAUAGUUGGUUUUGUUTT against Scamp4, the z-score was inactive: 1.2.
In the case of GCUUUUCAGAGCGAUCUCATT against Vps52, the z-score is inactive: -1.12.
For GGACAUCCUUCACCUCACATT against Ptges, the z-score is inactive: -1.97.
As for GGAAGAAAAUCUGAAGCUATT against Scoc, the figure is inactive: -0.364; as for GCUGCAGGAUAUCGCAAAGTT against Olfr1454, inactive: -0.177; as for GGCUGUGAAAGCAUAUGUGTT against Foxp2, inactive: -0.852.
GCUUUACCUGCAUAUUCCATT against Nradd: the z-score was active: -2.04.
Regarding GGUAUUCGAGCAGAUAUAUTT against Apol10b, the z-score was inactive: 0.0735.
GGUCUUCUAUCUGAAAAUGTT against Ywhaq: the z-score is inactive: 0.344.
As for GUUUGAUGAUCACUGGGUCTT against Aqp2, the figure is inactive: 1.6.
Then GCACGACGAGACAUUUUUGTT against Trmt112, with inactive: 0.99.
As for “GGUAUCCAUACUUCCACCCTT against 4930474N05Rik”, the figure is inactive: 0.0659; as for “ACUGUUGCAGCCUCUCUCATT against 1700029I15Rik”, inactive: -0.827.
For the sequence CCUGUAAUGAGUAUGACAUTT against Commd10, the z-score was inactive: 0.397.
For GCAUCUAUCAAUAAGGAGUTT against Adgrl1, the z-score is inactive: 0.137.
As for CAUUGAAUUCCUGCUCUCCTT against Defa-rs2, the figure is inactive: 0.227; as for GCUAUACACUUACUAGAAUTT against Adgrf1, inactive: 1.55.
As for GGUUACGUGAGGAUAAAAUTT against Slc38a8, the figure is inactive: -0.91.
As for GGUUCCAUAGCAGACAAAATT against Mrpl24, the figure is inactive: 0.513; as for GGAAAAAAUGGAACCAUUGTT against Rpa3, inactive: 0.342; as for GCAUAAAUUUCAAGAGCGCTT against Gigyf1, inactive: -0.243.
In the case of GGAGCAGCUAGACUUCUUUTT against Abhd8, the z-score was inactive: -0.434.
Then GCAAAACACACUGAUGGUGTT against Stx16, with inactive: 0.835; and CCGUACAAGAAAAAGUCGUTT against Srrm1, with inactive: 1.17; and GCGAAAACUUGGGAUAUUUTT against Mtmr1, with inactive: -0.689.
Then GGAAAAUGUUCAUCUCUCATT against Mboat2, with inactive: -0.25; and GGAAAGAUCUACGAGAUCUTT against Unc5a, with inactive: 1.04.
Then GGACAAGAGAACAACUAGUTT against Mrtfb, with inactive: 0.0162; and CGCAUCAUAAUGAUUGUGATT against Matn2, with inactive: -0.269.
Take GGGAUACGUUAAUUGUAACTT against Slc6a5: the z-score is inactive: 0.157.
GGAGUCGAGAGAGCAUUGGTT against Slc30a7: the z-score is inactive: -0.48.
As for CGGGAGAAAAUUUUAAAGGTT against Qsox2, the figure is inactive: 0.109; as for GGAGAUGGCACAGUCAGUCTT against Slc22a8, inactive: -0.338.
Then CCUCCCAGUACACUUGAAATT against Cox7a1, with inactive: 0.0752.
For the sequence GCCUCGUUGACUCCACUAUTT against Rab3ip, the z-score was inactive: -0.0482.
Regarding GCAUUGGACCAGUCCAGAUTT against Nr6a1, the z-score was inactive: 0.638.
On to GGUAUACCAUUCUCAUGAGTT against Olfr332, for which the z-score is inactive: -0.802.
Then GCCCAAAAGUGGUUUCCAATT against Rab11fip2, with inactive: 1; and GGAGCAAGAUCAAAUAUGATT against Cflar, with inactive: -1.08.
With GUCCUGCUUUCUCUCAUCUTT against Olfr686, the z-score was inactive: 1.14.
In the case of CCUGAUACCACGACAAGAATT against Cd55b, the z-score was inactive: -0.741.
As for GCCAGAGACAAGUAUCAGCTT against Egln2, the figure is inactive: 0.989; as for GCCGUGGAUCGAAUAAUUCTT against Coq7, inactive: -1.03.
